According to patent US20240270810A1, “PREPARATION AND APPLICATION OF POLYPEPTIDE” (GUANGDONG RAYNOVENT BIOTECH CO., LTD., priority 2021, published 2024):
At least one structure is not confirmed: it was looked up by name or label, or the drawing left a doubt.

Protein sequences, listed by entry. Tags and fused reporters are not part of them. Residues count along the entry.
UniProt P43220, 24-463, species assumed: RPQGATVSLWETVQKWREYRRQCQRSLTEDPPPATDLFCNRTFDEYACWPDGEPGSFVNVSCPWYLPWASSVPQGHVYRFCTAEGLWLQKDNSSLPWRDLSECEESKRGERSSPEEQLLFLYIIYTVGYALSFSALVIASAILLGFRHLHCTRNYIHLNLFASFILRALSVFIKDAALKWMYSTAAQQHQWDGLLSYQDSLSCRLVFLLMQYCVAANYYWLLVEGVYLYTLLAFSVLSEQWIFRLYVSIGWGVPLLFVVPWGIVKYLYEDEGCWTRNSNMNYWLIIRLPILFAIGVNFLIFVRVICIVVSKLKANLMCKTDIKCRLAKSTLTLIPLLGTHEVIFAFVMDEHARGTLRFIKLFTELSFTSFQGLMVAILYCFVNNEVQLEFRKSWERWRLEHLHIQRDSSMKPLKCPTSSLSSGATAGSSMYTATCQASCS

Tests used:
GIPR = target: T1, GIPR (Homo sapiens, UniProt P48546); experiment: In vitro GIPR agonistic activity test (cAMP kit); assay type: cell-based; settings: ratio of EC50 (+) 1% HSA to (−) 1% HSA
T1 construct: host or cells: CHO
T1 sequence (P48546 22-466): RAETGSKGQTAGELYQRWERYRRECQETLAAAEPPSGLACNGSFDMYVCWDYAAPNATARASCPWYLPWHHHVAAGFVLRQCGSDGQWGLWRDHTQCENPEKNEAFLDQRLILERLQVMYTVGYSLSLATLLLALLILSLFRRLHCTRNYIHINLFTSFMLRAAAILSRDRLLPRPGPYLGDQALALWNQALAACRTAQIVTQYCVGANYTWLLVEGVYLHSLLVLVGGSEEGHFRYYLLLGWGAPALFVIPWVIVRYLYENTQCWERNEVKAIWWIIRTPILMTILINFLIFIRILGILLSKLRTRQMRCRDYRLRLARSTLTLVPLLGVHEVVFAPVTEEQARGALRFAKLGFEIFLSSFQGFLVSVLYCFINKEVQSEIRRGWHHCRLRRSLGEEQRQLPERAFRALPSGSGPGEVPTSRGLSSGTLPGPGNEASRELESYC
Protocol: The cell lines were constructed by Wuxi […] (Shanghai) Co., Ltd. See details in Table 1 below. […] The test compounds were diluted at a 4-fold dilution factor in 10 points, starting from an initial concentration of 30 μM. The dilution was carried out by Bravo. • 1) 100 nL of compounds were transferred to an OptiPlate-384 plate by Echo. • 2) The OptiPlate-384 plate was centrifuged at 1000 rpm for 5 s. • 1) A GLP-1R/GIPR cell cryovial was placed in warm water at 37° C. for rapid thawing. • 2) The cell suspension was transferred into a 15 mL Transfer centrifugal tube and rinsed with 10 mL of HBSS gently. • 3) The centrifugal tube was centrifuged at 1000 rpm at room temperature for 1 min. • 4) The supernatant was discarded. • 5) The bottom cells were gently dispersed, then gently rinsed with 10 mL of HBSS, the centrifugal tube was centrifuged to settle the cells, and finally the cells were resuspended in an experimental buffer. • 6) Cell density and viability were measured by Vi-cell. • 7) The GLP-1R/GIPR cells were diluted with the experimental buffer to a concentration of 2.0*10^5/mL. • 8) […] of the diluted cell suspension was transferred into the OptiPlate-384 plate. • 9) Incubation was performed at room temperature for 30 min. • 1) 10 μL of 800 nM gradient diluted cAMP standard was added into the empty wells of the OptiPlate-384 plate. • 2) 10 μL of cAMP assay reagent was added. • 3) The OptiPlate-384 plate was covered with TopSeal-A film and incubated at room temperature for 60 min. The TopSeal-A film was removed, and readout was performed on En Vision.

GLP-1R = target: T2, GLP-1R (Homo sapiens, UniProt P43220); experiment: In vitro GLP-1R agonistic activity test (cAMP kit); assay type: cell-based; settings: ratio of EC50 (+) 1% HSA to (−) 1% HSA
T2 construct: host or cells: HEK293
Protocol: The cell lines were constructed by Wuxi […] (Shanghai) Co., Ltd. See details in Table 1 below. [table] [table] The test compounds were diluted at a 4-fold dilution factor in 10 points, starting from an initial concentration of 30 μM. The dilution was carried out by Bravo. • 1) 100 nL of compounds were transferred to an OptiPlate-384 plate by Echo. • 2) The OptiPlate-384 plate was centrifuged at 1000 rpm for 5 s. • 1) A GLP-1R/GIPR cell cryovial was placed in warm water at 37° C. for rapid thawing. • 2) The cell suspension was transferred into a 15 mL Transfer centrifugal tube and rinsed with 10 mL of HBSS gently. • 3) The centrifugal tube was centrifuged at 1000 rpm at room temperature for 1 min. • 4) The supernatant was discarded. • 5) The bottom cells were gently dispersed, then gently rinsed with 10 mL of HBSS, the centrifugal tube was centrifuged to settle the cells, and finally the cells were resuspended in an experimental buffer. • 6) Cell density and viability were measured by Vi-cell. • 7) The GLP-1R/GIPR cells were diluted with the experimental buffer to a concentration of 2.0*10^5/mL. • 8) […] of the diluted cell suspension was transferred into the OptiPlate-384 plate. • 9) Incubation was performed at room temperature for 30 min. • 1) 10 μL of 800 nM gradient diluted cAMP standard was added into the empty wells of the OptiPlate-384 plate. • 2) 10 μL of cAMP assay reagent was added. • 3) The OptiPlate-384 plate was covered with TopSeal-A film and incubated at room temperature for 60 min. The TopSeal-A film was removed, and readout was performed on En Vision.

[1] = tested on: STZ-HFD-induced NASH models of C57BL/6 mice; experiment: Efficacy in STZ-NASH mouse models; assay type: in vivo; settings: SC every two days for 5 weeks, endpoint pathology

Row | Structure (SMILES) | Agonistic activity on GIPR Ratio (GIPR) | Agonistic activity on GLP-1R Ratio (GLP-1R) | Ballooning degeneration scores [1] | Fibrosis (%) [1] [%] | Inflammation scores [1] | NAS scores [1] | Steatosis scores [1]
1 | CC[C@H](C)[C@H](NC(=O)[C@H](CC(C)C)NC(=O)[C@H](Cc1c[nH]c2ccccc12)NC(=O)[C@@H]1CCCCNC(=O)CN(C(=O)COCCOCCNC(=O)COCCOCCNC(=O)CC[C@H](NC(=O)CCCCCCCCCCCCCCCCCCC(=O)O)C(=O)O)CC(=O)NCCCC[C@H](NC(=O)[C@H](CCC(N)=O)NC(=O)[C@H](C)NC(=O)[C@@H](NC(=O)[C@H](CCCCN)NC(=O)[C@H](CC(=O)O)NC(=O)[C@H](CC(C)C)NC(=O)C(C)(C)NC(=O)[C@@H](NC(=O)[C@H](CO)NC(=O)[C@H](Cc2ccc(O)cc2)NC(=O)[C@H](CC(=O)O)NC(=O)[C@H](CO)NC(=O)[C@@H](NC(=O)[C@H](Cc2ccccc2)NC(=O)[C@@H](NC(=O)CNC(=O)[C@H](CCC(=O)O)NC(=O)C(C)(C)NC(=O)[C@@H](N)Cc2ccc(O)cc2)[C@@H](C)O)[C@@H](C)O)[C@@H](C)CC)[C@@H](C)CC)C(=O)N[C@@H](C)C(=O)N[C@@H](Cc2ccccc2)C(=O)N[C@@H](C(C)C)C(=O)N1)C(=O)N[C@@H](C)C(=O)NCC(=O)NCC(=O)N1CCC[C@H]1C(=O)N[C@@H](CO)C(=O)N[C@@H](CO)C(=O)NCC(=O)N[C@@H](C)C(=O)N1CCC[C@H]1C(=O)N1CCC[C@H]1C(=O)N1CCC[C@H]1C(=O)N[C@@H](CO)C(N)=O [WX-001] | 49.3 | 278.6 |  |  |  |  | 
2 | CC[C@H](C)[C@H](NC(=O)[C@H](CC(C)C)NC(=O)[C@H](Cc1c[nH]c2ccccc12)NC(=O)[C@@H]1CCCCNC(=O)CN(C(=O)COCCOCCNC(=O)COCCOCCNC(=O)CC[C@H](NC(=O)CCCCCCCCCCCCCCCCCCC(=O)O)C(=O)O)CC(=O)NCCCC[C@H](NC(=O)[C@H](CCC(N)=O)NC(=O)[C@H](C)NC(=O)[C@@H](NC(=O)[C@H](CCCCN)NC(=O)[C@H](CC(=O)O)NC(=O)[C@H](CC(C)C)NC(=O)C(C)(C)NC(=O)[C@@H](NC(=O)[C@H](CO)NC(=O)[C@H](Cc2ccc(O)cc2)NC(=O)[C@H](CC(=O)O)NC(=O)[C@H](CO)NC(=O)[C@@H](NC(=O)[C@H](Cc2ccccc2)NC(=O)[C@@H](NC(=O)CNC(=O)[C@H](CCC(=O)O)NC(=O)C(C)(C)NC(=O)[C@@H](N)Cc2ccc(O)cc2)[C@@H](C)O)[C@@H](C)O)[C@@H](C)CC)[C@@H](C)CC)C(=O)N[C@@H](CCC(=O)O)C(=O)N[C@@H](Cc2ccccc2)C(=O)N[C@@H](C(C)C)C(=O)N1)C(=O)N[C@@H](C)C(=O)NCC(=O)NCC(=O)N1CCC[C@H]1C(=O)N[C@@H](CO)C(=O)N[C@@H](CO)C(=O)NCC(=O)N[C@@H](C)C(=O)N1CCC[C@H]1C(=O)N1CCC[C@H]1C(=O)N1CCC[C@H]1C(=O)N[C@@H](CO)C(N)=O [WX-002] | 29 | 165 |  |  |  |  | 
3 | CC[C@H](C)[C@H](NC(=O)[C@H](CC(C)C)NC(=O)[C@H](Cc1c[nH]c2ccccc12)NC(=O)[C@@H]1CCCCNC(=O)CN(C(=O)COCCOCCNC(=O)COCCOCCNC(=O)CC[C@H](NC(=O)CCCCCCCCCCCCCCCCCCC(=O)O)C(=O)O)CC(=O)NCCCC[C@H](NC(=O)[C@H](CCC(N)=O)NC(=O)[C@H](C)NC(=O)[C@@H](NC(=O)[C@H](CCCCN)NC(=O)[C@H](CC(=O)O)NC(=O)[C@H](CC(C)C)NC(=O)C(C)(C)NC(=O)[C@@H](NC(=O)[C@H](CO)NC(=O)[C@H](Cc2ccc(O)cc2)NC(=O)[C@H](CC(=O)O)NC(=O)[C@H](CO)NC(=O)[C@@H](NC(=O)[C@H](Cc2ccccc2)NC(=O)[C@@H](NC(=O)CNC(=O)[C@H](CCC(=O)O)NC(=O)C(C)(C)NC(=O)[C@@H](N)Cc2ccc(O)cc2)[C@@H](C)O)[C@@H](C)O)[C@@H](C)CC)[C@@H](C)CC)C(=O)N[C@@H](C)C(=O)N[C@@H](Cc2ccccc2)C(=O)N[C@@H](C(C)C)C(=O)N1)C(=O)N[C@@H](C)C(=O)NCC(=O)NCC(=O)N1CCC[C@H]1C(=O)N[C@@H](CO)C(=O)N[C@@H](CO)C(=O)NCC(=O)N[C@@H](C)C(=O)N1CCC[C@H]1C(=O)N1CCC[C@H]1C(=O)N1CCC[C@H]1C(=O)N[C@@H](CO)C(N)=O [WX-004] | 16 | 45 |  |  |  |  | 
4 | CC[C@H](C)[C@H](NC(=O)[C@H](CC(C)C)NC(=O)[C@H](Cc1c[nH]c2ccccc12)NC(=O)[C@H](CCC(=O)O)NC(=O)[C@@H](NC(=O)[C@H](Cc1ccccc1)NC(=O)[C@H](C)NC(=O)[C@@H]1CCCCNC(=O)CN(C(=O)COCCOCCNC(=O)COCCOCCNC(=O)CC[C@H](NC(=O)CCCCCCCCCCCCCCCCCCC(=O)O)C(=O)O)CC(=O)NCCCC[C@H](NC(=O)[C@H](CCCCN)NC(=O)[C@H](CC(=O)O)NC(=O)[C@H](CC(C)C)NC(=O)C(C)(C)NC(=O)[C@@H](NC(=O)[C@H](CO)NC(=O)[C@H](Cc2ccc(O)cc2)NC(=O)[C@H](CC(=O)O)NC(=O)[C@H](CO)NC(=O)[C@@H](NC(=O)[C@H](Cc2ccccc2)NC(=O)[C@@H](NC(=O)CNC(=O)[C@H](CCC(=O)O)NC(=O)C(C)(C)NC(=O)[C@@H](N)Cc2ccc(O)cc2)[C@@H](C)O)[C@@H](C)O)[C@@H](C)CC)C(=O)N[C@@H](C)C(=O)N[C@@H](CCC(N)=O)C(=O)N1)C(C)C)C(=O)N[C@@H](C)C(=O)NCC(=O)NCC(=O)N1CCC[C@H]1C(=O)N[C@@H](CO)C(=O)N[C@@H](CO)C(=O)NCC(=O)N[C@@H](C)C(=O)N1CCC[C@H]1C(=O)N1CCC[C@H]1C(=O)N1CCC[C@H]1C(=O)N[C@@H](CO)C(N)=O [WX-005] | 121 | 212 | 0.1 | 0.8 | 1.0 | 2.6 | 1.5
5 | CC[C@H](C)[C@H](NC(=O)[C@H](CC(C)C)NC(=O)[C@H](Cc1c[nH]c2ccccc12)NC(=O)[C@H](CCC(=O)O)NC(=O)[C@@H](NC(=O)[C@H](Cc1ccccc1)NC(=O)[C@H](CCC(=O)O)NC(=O)[C@@H]1CCCCNC(=O)CN(C(=O)COCCOCCNC(=O)COCCOCCNC(=O)CC[C@H](NC(=O)CCCCCCCCCCCCCCCCCCC(=O)O)C(=O)O)CC(=O)NCCCC[C@H](NC(=O)[C@H](CCCCN)NC(=O)[C@H](CC(=O)O)NC(=O)[C@H](CC(C)C)NC(=O)C(C)(C)NC(=O)[C@@H](NC(=O)[C@H](CO)NC(=O)[C@H](Cc2ccc(O)cc2)NC(=O)[C@H](CC(=O)O)NC(=O)[C@H](CO)NC(=O)[C@@H](NC(=O)[C@H](Cc2ccccc2)NC(=O)[C@@H](NC(=O)CNC(=O)[C@H](CCC(=O)O)NC(=O)C(C)(C)NC(=O)[C@@H](N)Cc2ccc(O)cc2)[C@@H](C)O)[C@@H](C)O)[C@@H](C)CC)C(=O)N[C@@H](C)C(=O)N[C@@H](CCC(N)=O)C(=O)N1)C(C)C)C(=O)N[C@@H](C)C(=O)NCC(=O)NCC(=O)N1CCC[C@H]1C(=O)N[C@@H](CO)C(=O)N[C@@H](CO)C(=O)NCC(=O)N[C@@H](C)C(=O)N1CCC[C@H]1C(=O)N1CCC[C@H]1C(=O)N1CCC[C@H]1C(=O)N[C@@H](CO)C(N)=O [WX-009] |  |  | 0 | 1.1 | 1.4 | 2.4 | 1.0
